Percent effect of library compounds

From ChEMBL document CHEMBL3988442, “University of Dundee, Small-Polar-MMV Screening Library” (2021).

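Growth of Mycobacterium tuberculosis over 4 days (cholesterol / DPPC medium with tyloxapol); the read-out is not stated. Concentration: 500 µM. Direction is inferred from retests: higher values go with more growth inhibition. About 18,000 compounds were tested under these conditions; 5% (about 900) showed 50% or more at least once.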

Results are given as percent effect.
How 0% and 100% were set is not recorded. Most values in the screen are low, and negative values occur.
This is an unselected part of the compounds tested.

Compound,effect
O=C(CCn1cccc1)N1CCn2nc(CO)cc2C1,-14.28
CNc1nnc(-c2ccccc2)s1,32.27
CC(C)(C)CC1CCCN1S(N)(=O)=O (configuration not stated),10.7
NC(Cc1ccc(O)cc1)c1nc2ccccc2[nH]1 (configuration not stated),-3.526
CSCCC(OC(=O)c1ccc(F)cc1)C(N)=O (configuration not stated),21.16
CCN(CC)C(=O)CN(C)S(=O)(=O)C(C)C(F)(F)F (configuration not stated),2.408
Cc1cc(C(=O)N2CCN(Cc3ccsc3)CC2)[nH]n1,84.01
CNC(=O)CCCNCc1c(C)nn(C)c1OC,-0.4668
CCCn1cnnc1CNC(=O)C(C)NC(=O)OC (configuration not stated),-0.2672
CCOCCC(=O)N1CCC2(CC1)C(=O)NCCN2C,2.992
CC1=C(C(=O)N(C)C)C(c2ccccc2F)NC(=O)N1 (configuration not stated),10.88
O=C(CCS(=O)(=O)c1ccccc1)Nc1ncccn1,-23.55
CSCc1cc(F)ccc1CNC(=O)[C@H]1CCC(=O)N1,9.953
Cn1c(CO)cnc1S(=O)(=O)Cc1ccc(F)cc1,0.9673
CCC(C)NCCOC (configuration not stated),4.657
CSCc1nc(CNC(=O)CNC2CC2)cs1,20.55
O=C1c2ccc(Cl)cc2C(=O)N1c1cccnc1,-1.776
COCCCN1C(=O)[C@H]2CNC[C@H]2C1=O,-5.608
CN(C)c1ccc(CN2CC[C@](C)(O)C(C)(C)C2)cn1,-6.728
CC(C)(C)OC(=O)N[C@@H]1CCCN(Cc2ncc[nH]2)C1,-6.555
O=C(CC(O)c1cccc(F)c1)N1CCC[C@H]1CO (some centres not stated),-6.854
CC1CCCCN1Cc1nc(-c2ccccn2)no1 (configuration not stated),9.458
Cc1ocnc1C(=O)N(CCO)Cc1ccccc1Cl,19.84
CC(C)(C)NC(=O)CNc1cc(CCN)ncn1,-6.433
CCC1CN(CCn2cncn2)CCN1CCOC (configuration not stated),-9.649
CCOC(=O)c1cnn(-c2ccc(OCC)cc2)c1N,51.87
Cc1noc(C)c1CNC(=O)CCC1CCCN(C)C1 (configuration not stated),-1.718
O=C(C1Cc2cc(Cl)ccc2O1)N1CCOCC1 (configuration not stated),43.52
O=C(Nc1cncc(Br)c1O)c1csnn1,4.061
CC1COCCN1C(=O)Cc1cccc2cccnc12 (configuration not stated),16.87
CN(CCOc1ccc(Cl)cc1)CCC(N)=O,47.07
CCc1nc(Cn2ccc(C)c(C#N)c2=O)no1,0.549
COc1ccccc1NC(=O)c1c(Br)cnn1C,3.947
CN(Cc1cccc(C#N)c1)C(=O)C1CC1,69.74
COC(=O)CC1NCCNC1=O (configuration not stated),0.2109
NCc1cccc(C(=O)N2CCCC2)c1,11.86
O=C(C1CCC1)N(Cc1ccccn1)C1CC1,14.88
CNCCCc1ccc(OC)cc1,-3.545
Nc1ccnc(-c2ccc(CO)cc2)c1,-0.7343
CNCC1CCN(C(=O)Nc2ccccc2)CC1,0.2368
CCC(NC(=O)CCCc1cn[nH]c1)[C@H]1C[C@H](O)C1 (some centres not stated),-9.262
CC(C)(CO)C(N)c1cccnc1 (configuration not stated),-14.54
CC(C)n1ccnc1C1CCN(C(=O)[C@@H](C)O)CC1,0.3754
CCN(CC)C(=O)CN1CCCC(C)C1 (configuration not stated),-7.353
COCCNC(=O)CCN,10.61
Cc1cc(C)n2c(SCCC(N)=O)nnc2n1,-14.6
Cc1cc(C)nc(N2CCC(C(N)=O)CC2)n1,16.35
CCN(CC)S(=O)(=O)N1CCNCC1,1.363
O=C(NCC1CCCO1)Nc1cn[nH]c1 (configuration not stated),-6.602
CCOc1cc(C(=O)OCC(=O)NC)cc(Br)c1OC,-26.73
CN1CCC(CNC(=O)Nc2ccccc2F)CC1,-9.189
CCC(CC)NC(=O)CCn1cncn1,-17.86
CC(C)Oc1ccc(C(=O)NCCNC(C)(C)C)cn1,5.201
CN1CCCCC1CC(=O)NCc1ccc(O)cc1O (configuration not stated),-89.07
OC1CCCN(Cc2cc(-c3ccco3)on2)C1 (configuration not stated),-11.21
CC(C)(C)OC(=O)NCCC(=O)NC1CCOC1 (configuration not stated),-7.359
c1ccc(C2=NCCN2)nc1,29.47
CCOC(=O)N1CCC(N2CCCCC(N)C2)CC1 (configuration not stated),-7.641
CC1Sc2ccc(C(=O)N(C)C)cc2NC1=O (configuration not stated),5.484
CS(=O)(=O)Cc1ccc(CN)cc1,9.766
CCC(c1ccccn1)N(C)C(=O)c1occc1C (configuration not stated),24.48
NC(=O)N1CCCC(C(=O)Nc2cc(Br)ccc2F)C1 (configuration not stated),31.38
NC(=O)C1CCN(CCCOc2ccccc2)CC1,8.54
OCC(O)CN1CCCN(Cc2cccnc2)CC1 (configuration not stated),23.22
CCC[C@H]1CN(S(=O)(=O)Cc2ccc(F)cc2)C[C@@H]1N,41.83
CN1CCC(NCC(=O)NC(C)(C)C)CC1,-17.26
COc1cc(C(=O)NC(C)(C)CC(N)=O)sc1Br,-3.771
CC(C)C(C)NC(=O)CS(=O)(=O)Cc1ccccc1 (configuration not stated),6.192
CCCNS(=O)(=O)c1ccc(OCC(N)=O)c(C)c1,11.7
Cc1ccc(-c2csc(N3CCS(=O)(=O)CC3)n2)s1,-5.842
COc1ccc(-c2csc(CC(N)=O)n2)cc1,12.13
CN(C)CC(C)(C)CNC1CCN(C)CC1,-6.779
O=C(NCc1ccc(-n2cccn2)cc1)NC1CC1,-7.911
CC(C)CCNC(=O)Nc1ccc(-n2cccn2)nc1,63.13
CNC(=O)CN(C)C(=O)Cc1c[nH]c2ccccc12,-1.836

Once more, the final 9:

* COc1cc(C(=O)NC(C)(C)CC(N)=O)sc1Br | -3.771%
* CC(C)C(C)NC(=O)CS(=O)(=O)Cc1ccccc1 (configuration not stated) | 6.192%
* CCCNS(=O)(=O)c1ccc(OCC(N)=O)c(C)c1 | 11.7%
* Cc1ccc(-c2csc(N3CCS(=O)(=O)CC3)n2)s1 | -5.842%
* COc1ccc(-c2csc(CC(N)=O)n2)cc1 | 12.13%
* CN(C)CC(C)(C)CNC1CCN(C)CC1 | -6.779%
* O=C(NCc1ccc(-n2cccn2)cc1)NC1CC1 | -7.911%
* CC(C)CCNC(=O)Nc1ccc(-n2cccn2)nc1 | 63.13%
* CNC(=O)CN(C)C(=O)Cc1c[nH]c2ccccc12 | -1.836%